Assay [1] has as its target human TANGO1 cargo-recognition (MOTH) domain, residues 21-131 (human) (UniProt Q5JRA6). Briefly: condition: 10-fold molar excess of peptide over 193 µM protein; NMR titration; 1H-15N HSQC of [U-15N]-enriched domain (160-215 µM) without and with 10-fold molar excess of peptide (24-fold for MIA with SOS1 peptide); 298 K; PBS pH 7.4 (hsTANGO1(21-131): 25 mM HEPES pH 7.4, 150 mM NaCl, 1% CHAPS); both purified.

Protein sequences, listed by entry. Tags and fused reporters are not part of them. Lines headed by an entry give the natural chain unless they say otherwise; changes in a name come on top.
UniProt Q5JRA6: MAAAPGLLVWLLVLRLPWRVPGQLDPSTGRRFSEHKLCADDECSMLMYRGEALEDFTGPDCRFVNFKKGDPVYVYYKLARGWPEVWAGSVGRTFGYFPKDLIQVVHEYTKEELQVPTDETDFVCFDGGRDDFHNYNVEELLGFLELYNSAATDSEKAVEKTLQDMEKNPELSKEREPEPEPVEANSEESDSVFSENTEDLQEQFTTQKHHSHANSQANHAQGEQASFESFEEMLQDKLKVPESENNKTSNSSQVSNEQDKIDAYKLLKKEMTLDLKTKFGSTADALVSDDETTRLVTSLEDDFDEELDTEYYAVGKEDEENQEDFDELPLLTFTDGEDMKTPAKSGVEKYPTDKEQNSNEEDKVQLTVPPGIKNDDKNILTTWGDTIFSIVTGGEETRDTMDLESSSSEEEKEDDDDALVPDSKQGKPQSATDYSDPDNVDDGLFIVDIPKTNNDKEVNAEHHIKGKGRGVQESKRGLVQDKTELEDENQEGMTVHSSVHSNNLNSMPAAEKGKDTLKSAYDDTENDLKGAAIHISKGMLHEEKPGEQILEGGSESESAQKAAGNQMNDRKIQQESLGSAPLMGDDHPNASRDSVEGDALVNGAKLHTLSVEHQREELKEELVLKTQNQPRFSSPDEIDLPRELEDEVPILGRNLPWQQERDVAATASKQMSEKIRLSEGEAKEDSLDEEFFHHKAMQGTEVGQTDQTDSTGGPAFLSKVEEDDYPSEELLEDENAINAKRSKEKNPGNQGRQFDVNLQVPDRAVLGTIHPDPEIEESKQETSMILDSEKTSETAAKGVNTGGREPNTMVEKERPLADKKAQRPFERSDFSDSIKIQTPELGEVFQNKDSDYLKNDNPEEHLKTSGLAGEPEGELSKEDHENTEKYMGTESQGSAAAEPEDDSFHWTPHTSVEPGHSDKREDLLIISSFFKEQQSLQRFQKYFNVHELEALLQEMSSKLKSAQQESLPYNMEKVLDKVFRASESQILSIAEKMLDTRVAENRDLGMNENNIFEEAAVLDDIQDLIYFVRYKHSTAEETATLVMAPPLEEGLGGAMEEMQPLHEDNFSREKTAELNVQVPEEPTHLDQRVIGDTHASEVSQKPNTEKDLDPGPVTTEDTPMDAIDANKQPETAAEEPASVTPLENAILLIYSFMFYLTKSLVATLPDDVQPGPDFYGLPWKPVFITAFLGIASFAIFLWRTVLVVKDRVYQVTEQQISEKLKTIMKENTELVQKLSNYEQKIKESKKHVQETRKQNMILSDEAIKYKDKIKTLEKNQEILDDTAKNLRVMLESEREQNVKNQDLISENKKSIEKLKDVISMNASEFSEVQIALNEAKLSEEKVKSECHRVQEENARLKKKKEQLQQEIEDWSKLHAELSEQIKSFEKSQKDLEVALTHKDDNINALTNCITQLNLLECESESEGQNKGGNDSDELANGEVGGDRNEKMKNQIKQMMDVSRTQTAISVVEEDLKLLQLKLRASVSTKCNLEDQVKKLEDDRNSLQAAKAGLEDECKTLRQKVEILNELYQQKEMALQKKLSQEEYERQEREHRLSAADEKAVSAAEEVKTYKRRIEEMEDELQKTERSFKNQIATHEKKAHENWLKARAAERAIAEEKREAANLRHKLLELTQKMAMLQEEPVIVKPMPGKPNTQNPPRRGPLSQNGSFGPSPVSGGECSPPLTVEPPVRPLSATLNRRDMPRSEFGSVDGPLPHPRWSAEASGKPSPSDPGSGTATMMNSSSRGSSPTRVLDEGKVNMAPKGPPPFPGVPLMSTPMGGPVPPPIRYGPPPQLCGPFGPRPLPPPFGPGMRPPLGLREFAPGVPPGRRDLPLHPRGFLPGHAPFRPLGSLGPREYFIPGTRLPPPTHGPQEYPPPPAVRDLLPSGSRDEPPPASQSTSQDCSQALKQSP
UniProt P27986: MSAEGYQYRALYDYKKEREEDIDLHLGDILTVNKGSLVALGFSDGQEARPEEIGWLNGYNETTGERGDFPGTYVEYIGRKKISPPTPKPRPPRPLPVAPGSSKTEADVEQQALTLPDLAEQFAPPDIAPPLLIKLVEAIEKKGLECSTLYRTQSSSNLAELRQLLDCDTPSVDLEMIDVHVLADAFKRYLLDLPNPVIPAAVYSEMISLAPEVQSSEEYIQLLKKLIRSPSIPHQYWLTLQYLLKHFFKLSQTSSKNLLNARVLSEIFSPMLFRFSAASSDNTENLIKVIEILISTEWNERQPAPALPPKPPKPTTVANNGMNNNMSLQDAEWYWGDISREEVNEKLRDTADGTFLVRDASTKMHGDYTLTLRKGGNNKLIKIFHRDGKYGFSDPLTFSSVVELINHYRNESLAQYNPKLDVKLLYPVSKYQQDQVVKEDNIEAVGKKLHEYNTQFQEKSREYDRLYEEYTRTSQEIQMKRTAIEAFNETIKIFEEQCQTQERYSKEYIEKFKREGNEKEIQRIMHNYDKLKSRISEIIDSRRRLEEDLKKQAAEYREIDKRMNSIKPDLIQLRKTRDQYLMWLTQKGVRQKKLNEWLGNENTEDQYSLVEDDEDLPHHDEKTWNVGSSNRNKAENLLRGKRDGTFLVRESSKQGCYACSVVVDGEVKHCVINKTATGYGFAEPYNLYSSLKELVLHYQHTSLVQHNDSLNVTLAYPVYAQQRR

The target is the same in assay [2]. Briefly: condition: 10-fold molar excess of peptide over 215 µM protein; NMR titration; 1H-15N HSQC of [U-15N]-enriched domain (160-215 µM) without and with 10-fold molar excess of peptide (24-fold for MIA with SOS1 peptide); 298 K; PBS pH 7.4 (hsTANGO1(21-131): 25 mM HEPES pH 7.4, 150 mM NaCl, 1% CHAPS); both purified.

No constants are given. Whether binding was seen depends on the method and setting.

Regarding “SOS1 (1149-1158), class II PPII helix peptide (from UniProt Q07889 1149-1158)”, in assay [1], the binding entry was “no binding”.

“p85α(91-104), class I PPII helix peptide (from UniProt P27986 91-104)”: the binding entry in assay [2] is “no binding”.

The values above are taken from PMC10119292, “Characterization of a fold in TANGO1 evolved from SH3 domains for the export of bulky cargos” (Nature Communications, 2023).
